Reference: the supplement of paper PMC12823440, “Inhibitors supercharge kinase turnover through native proteolytic circuits” (Nature, 2025)
Where a name gives a salt, the structure may show the parent alone. The list shows a part of the results. The calls rarely recur for the same compound in another form.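 Kinases were expressed as nanoluciferase fusions in K562 cells and luminescence was read every 4 h between 2 and 18 h as percent of control, DMSO set to 100% and a positive control to 0%. A time point counts as decreased when the signal drops significantly (2 sigma). The hit call is the authors' own, does not follow from the count of time points alone, and its rule is not shown.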

By UniProt entry, the sequences of proteins in these tests, tags left out. Where a name states a change or a piece, a line headed by the entry shows the natural chain unless it says otherwise.
UniProt P00519, whole entry: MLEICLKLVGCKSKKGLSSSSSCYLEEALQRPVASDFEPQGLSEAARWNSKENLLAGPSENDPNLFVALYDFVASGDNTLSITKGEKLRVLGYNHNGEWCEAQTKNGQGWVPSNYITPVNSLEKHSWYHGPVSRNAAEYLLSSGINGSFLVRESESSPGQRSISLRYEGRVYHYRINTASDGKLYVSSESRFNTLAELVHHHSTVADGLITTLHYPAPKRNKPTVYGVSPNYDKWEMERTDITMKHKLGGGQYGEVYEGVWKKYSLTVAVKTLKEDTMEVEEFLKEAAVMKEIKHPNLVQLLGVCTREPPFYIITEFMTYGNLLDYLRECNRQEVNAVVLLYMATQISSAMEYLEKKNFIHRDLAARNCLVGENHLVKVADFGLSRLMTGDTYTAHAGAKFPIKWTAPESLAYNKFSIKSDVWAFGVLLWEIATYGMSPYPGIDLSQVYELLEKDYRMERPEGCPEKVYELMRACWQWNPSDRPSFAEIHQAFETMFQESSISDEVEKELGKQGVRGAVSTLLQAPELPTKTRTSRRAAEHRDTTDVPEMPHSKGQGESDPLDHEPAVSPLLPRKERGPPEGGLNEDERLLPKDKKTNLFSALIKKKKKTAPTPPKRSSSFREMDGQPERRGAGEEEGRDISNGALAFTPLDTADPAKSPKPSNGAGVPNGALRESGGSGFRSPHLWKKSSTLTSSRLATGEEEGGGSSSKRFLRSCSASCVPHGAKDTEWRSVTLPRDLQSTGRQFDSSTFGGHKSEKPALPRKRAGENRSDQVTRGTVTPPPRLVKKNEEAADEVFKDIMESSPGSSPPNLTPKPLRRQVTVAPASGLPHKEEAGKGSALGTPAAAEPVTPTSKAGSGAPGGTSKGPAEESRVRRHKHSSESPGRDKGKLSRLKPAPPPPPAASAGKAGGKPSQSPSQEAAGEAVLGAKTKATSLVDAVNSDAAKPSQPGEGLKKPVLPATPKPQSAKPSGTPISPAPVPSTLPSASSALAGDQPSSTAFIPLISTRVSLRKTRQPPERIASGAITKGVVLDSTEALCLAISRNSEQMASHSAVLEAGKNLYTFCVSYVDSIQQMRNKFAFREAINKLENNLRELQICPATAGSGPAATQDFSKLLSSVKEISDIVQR
UniProt P31749: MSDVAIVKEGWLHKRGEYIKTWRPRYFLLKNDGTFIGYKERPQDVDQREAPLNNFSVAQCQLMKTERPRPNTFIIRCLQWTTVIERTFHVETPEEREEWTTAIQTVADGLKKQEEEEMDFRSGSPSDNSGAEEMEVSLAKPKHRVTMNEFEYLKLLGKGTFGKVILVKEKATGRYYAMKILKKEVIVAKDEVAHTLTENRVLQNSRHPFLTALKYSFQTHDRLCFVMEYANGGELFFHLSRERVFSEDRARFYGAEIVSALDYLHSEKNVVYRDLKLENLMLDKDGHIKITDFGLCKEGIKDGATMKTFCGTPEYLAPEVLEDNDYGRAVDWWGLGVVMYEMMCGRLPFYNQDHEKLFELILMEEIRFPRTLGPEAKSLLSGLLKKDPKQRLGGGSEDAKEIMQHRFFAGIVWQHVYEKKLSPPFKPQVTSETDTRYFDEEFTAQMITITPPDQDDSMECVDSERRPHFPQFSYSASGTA
UniProt Q9UM73: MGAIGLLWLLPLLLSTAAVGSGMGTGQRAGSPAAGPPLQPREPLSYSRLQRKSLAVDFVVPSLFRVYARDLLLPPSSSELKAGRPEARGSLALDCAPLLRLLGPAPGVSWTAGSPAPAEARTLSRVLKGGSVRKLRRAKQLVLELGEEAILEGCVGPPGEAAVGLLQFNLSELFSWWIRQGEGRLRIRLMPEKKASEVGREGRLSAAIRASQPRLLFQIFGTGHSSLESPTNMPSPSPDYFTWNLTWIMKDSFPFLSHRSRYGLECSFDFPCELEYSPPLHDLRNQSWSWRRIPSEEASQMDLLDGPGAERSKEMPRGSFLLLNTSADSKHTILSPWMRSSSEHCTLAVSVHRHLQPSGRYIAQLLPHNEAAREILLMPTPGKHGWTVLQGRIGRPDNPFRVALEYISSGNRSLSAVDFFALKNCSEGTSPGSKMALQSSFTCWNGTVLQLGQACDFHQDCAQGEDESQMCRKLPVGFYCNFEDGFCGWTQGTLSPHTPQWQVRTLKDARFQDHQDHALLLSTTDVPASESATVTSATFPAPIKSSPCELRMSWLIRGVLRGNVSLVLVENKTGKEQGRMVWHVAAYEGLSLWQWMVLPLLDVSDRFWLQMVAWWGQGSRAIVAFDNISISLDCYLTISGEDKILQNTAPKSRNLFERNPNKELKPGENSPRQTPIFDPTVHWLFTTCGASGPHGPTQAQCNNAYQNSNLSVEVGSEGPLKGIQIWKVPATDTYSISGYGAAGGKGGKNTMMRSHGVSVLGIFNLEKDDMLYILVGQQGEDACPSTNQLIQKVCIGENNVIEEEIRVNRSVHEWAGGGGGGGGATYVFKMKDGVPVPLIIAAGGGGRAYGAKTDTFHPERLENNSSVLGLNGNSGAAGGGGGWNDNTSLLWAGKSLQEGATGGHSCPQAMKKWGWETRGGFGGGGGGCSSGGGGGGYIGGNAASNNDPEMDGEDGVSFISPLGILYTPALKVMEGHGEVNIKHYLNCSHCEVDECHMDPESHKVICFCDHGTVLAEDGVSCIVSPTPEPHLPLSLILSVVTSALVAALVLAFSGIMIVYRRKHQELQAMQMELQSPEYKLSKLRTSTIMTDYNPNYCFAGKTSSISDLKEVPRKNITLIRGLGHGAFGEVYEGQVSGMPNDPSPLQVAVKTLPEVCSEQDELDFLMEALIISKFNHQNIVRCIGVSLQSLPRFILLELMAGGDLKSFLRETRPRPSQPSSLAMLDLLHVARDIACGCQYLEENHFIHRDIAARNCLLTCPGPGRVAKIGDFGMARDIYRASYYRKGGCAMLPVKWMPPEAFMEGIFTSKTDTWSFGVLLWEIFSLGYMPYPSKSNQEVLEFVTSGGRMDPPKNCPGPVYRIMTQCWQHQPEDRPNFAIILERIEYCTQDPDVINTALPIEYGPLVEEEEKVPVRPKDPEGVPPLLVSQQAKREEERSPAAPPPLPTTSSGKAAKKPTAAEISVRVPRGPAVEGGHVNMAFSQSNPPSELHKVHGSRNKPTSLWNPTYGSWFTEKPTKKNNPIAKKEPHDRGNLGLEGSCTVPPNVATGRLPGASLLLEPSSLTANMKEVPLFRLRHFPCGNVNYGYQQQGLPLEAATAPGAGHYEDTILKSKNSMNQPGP
UniProt P10398: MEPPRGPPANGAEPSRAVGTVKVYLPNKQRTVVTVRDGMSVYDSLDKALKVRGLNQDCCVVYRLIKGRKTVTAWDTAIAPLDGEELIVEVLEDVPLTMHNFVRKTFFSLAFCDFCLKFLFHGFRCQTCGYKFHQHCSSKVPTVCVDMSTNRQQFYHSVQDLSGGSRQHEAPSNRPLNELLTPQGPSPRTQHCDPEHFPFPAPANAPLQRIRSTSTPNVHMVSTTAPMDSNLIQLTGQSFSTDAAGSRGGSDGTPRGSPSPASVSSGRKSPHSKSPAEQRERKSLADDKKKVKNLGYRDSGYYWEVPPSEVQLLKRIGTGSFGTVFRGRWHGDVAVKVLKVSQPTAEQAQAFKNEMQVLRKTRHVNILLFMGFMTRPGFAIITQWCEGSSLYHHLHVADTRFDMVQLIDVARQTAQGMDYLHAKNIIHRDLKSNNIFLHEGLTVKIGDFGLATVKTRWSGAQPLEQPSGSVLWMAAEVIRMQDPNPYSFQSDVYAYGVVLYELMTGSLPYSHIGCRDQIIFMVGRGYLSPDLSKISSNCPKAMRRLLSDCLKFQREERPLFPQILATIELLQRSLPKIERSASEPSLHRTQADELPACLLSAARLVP
UniProt O14965: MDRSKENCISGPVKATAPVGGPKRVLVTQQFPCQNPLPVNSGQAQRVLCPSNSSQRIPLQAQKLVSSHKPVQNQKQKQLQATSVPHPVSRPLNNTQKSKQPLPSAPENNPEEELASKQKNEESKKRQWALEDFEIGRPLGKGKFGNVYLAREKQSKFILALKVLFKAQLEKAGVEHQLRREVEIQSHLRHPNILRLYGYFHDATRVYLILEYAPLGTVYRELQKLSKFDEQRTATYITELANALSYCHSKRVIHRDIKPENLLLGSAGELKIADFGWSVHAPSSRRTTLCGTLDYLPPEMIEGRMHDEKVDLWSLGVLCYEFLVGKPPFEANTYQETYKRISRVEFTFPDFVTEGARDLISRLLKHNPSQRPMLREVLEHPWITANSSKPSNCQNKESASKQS
UniProt Q9UQB9: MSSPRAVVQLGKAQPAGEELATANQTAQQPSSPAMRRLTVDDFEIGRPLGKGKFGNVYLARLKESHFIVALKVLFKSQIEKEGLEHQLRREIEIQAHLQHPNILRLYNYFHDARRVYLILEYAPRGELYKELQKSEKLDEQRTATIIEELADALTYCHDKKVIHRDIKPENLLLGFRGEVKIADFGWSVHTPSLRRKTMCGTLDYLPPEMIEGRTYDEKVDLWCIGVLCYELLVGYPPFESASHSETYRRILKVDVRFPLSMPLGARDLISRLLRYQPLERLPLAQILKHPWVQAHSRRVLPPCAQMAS
UniProt P51451: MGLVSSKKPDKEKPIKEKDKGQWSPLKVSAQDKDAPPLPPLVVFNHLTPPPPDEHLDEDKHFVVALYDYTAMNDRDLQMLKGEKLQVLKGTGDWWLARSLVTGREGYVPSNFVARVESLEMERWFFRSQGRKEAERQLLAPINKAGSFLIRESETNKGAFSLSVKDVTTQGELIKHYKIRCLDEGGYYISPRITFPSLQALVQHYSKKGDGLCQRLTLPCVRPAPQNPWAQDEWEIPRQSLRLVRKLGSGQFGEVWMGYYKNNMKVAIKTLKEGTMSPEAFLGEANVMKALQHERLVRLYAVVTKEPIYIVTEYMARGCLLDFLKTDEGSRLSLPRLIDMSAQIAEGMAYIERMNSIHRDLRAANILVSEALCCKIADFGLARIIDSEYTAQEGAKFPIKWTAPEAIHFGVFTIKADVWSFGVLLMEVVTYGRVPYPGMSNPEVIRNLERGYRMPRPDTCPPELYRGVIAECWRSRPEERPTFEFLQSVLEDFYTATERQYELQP
UniProt P51813: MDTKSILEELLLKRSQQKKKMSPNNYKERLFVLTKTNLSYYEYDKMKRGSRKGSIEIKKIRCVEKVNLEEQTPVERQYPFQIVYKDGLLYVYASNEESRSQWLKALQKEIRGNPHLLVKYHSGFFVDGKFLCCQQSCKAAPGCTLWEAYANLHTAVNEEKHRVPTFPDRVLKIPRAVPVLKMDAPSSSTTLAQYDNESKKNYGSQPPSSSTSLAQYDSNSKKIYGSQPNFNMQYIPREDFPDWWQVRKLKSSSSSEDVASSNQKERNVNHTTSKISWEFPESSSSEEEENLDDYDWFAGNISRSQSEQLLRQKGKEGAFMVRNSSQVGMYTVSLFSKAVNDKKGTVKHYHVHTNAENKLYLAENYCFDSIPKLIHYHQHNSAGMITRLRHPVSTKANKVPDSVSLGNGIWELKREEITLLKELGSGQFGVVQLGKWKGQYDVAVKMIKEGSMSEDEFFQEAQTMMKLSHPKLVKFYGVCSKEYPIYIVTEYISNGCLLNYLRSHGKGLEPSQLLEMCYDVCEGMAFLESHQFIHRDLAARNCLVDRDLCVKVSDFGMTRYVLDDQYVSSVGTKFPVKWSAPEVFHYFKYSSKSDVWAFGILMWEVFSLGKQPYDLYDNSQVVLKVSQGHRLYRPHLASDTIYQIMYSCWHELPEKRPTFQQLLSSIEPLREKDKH
UniProt P15056, whole entry, looked up: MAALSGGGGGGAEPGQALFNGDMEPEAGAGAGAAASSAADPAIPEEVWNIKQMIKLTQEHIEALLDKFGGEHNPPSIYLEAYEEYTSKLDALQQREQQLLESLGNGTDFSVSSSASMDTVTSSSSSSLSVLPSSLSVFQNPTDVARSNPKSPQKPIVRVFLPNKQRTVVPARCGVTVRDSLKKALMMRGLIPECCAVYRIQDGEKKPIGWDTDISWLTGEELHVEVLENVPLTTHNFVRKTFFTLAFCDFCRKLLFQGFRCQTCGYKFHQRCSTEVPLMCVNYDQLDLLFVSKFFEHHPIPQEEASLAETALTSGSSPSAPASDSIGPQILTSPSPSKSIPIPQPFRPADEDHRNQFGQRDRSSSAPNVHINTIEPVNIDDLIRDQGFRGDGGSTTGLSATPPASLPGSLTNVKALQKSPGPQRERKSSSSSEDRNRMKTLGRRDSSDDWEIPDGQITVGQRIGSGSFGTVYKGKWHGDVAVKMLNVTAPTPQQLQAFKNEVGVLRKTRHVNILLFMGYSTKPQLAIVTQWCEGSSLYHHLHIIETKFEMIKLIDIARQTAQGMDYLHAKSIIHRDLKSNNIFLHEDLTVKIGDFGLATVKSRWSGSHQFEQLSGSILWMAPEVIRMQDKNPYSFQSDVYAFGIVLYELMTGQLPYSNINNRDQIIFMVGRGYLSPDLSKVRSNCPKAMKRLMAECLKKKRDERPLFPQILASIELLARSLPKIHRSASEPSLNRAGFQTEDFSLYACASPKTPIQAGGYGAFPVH

Legend:
Test in all cases: kinase-Nluc reporter destabilization hit call (1 = scored as downregulated) (binary); higher = compound decreases kinase abundance
Conditions in all cases: K562; 2-18 h
ABL1 = ABL1 (UniProt P00519)
AKT1 = AKT1 (UniProt P31749)
ALK = ALK (UniProt Q9UM73)
ARAF = ARAF (UniProt P10398)
AURKA = AURKA (UniProt O14965)
AURKB = AURKB (UniProt Q96GD4)
AURKC = AURKC (UniProt Q9UQB9)
BLK = BLK (UniProt P51451)
BMX = BMX (UniProt P51813)
BRAF = BRAF (UniProt P15056)

Measured: kinase-Nluc reporter destabilization hit call

Cc1cc2cc(Nc3ccnc(Nc4ccc5[nH]c(C)cc5c4)n3)ccc2[nH]1 (2.5 µM)
inactive: ABL1 = 0 | AKT1 = 0 | ALK 0 | ARAF 0 | AURKA 0 | AURKB 0 | AURKC 0 | BLK 0 | BMX 0 | BRAF 0

COCCOc1ccc(-c2cn(-c3ccccc3)c3nc[nH]c(=O)c23)cc1 (10 µM)
inactive: ABL1 = 0 | AKT1 = 0 | ALK 0 | ARAF 0 | AURKA 0 | AURKB 0 | AURKC 0 | BLK 0 | BMX 0 | BRAF 0

Cc1ccc(Nc2cc(-c3cccc(N4C(=O)c5ccccc5C4=O)c3)ncn2)cc1NS(C)(=O)=O (10 µM)
inactive: ABL1 = 0 | AKT1 = 0 | ALK 0 | ARAF 0 | AURKA 0 | AURKB 0 | AURKC 0 | BLK 0 | BMX 0 | BRAF 0

N#Cc1ccc2ncnc(NC3CCC(N4CCOCC4)CC3)c2c1 (stereo not given) (10 µM)
inactive: ABL1 = 0 | AKT1 = 0 | ALK 0 | ARAF 0 | AURKA 0 | AURKB 0 | AURKC 0 | BLK 0 | BMX 0 | BRAF 0

C[C@]1(O)CCC[C@@H]1n1c(=O)c(C(F)F)cc2cnc(NC3CCN(S(C)(=O)=O)CC3)nc21 (10 µM)
inactive: ABL1 = 0 | AKT1 = 0 | ALK 0 | ARAF 0 | AURKA 0 | AURKB 0 | AURKC 0 | BLK 0 | BMX 0 | BRAF 0

C[C@@H](c1ccc2nccn2c1)n1nnc2ncc(-c3cnn(C)c3)nc21 [Savolitinib] (10 µM)
inactive: ABL1 = 0 | AKT1 = 0 | ALK 0 | ARAF 0 | AURKA 0 | AURKB 0 | AURKC 0 | BLK 0 | BMX 0 | BRAF 0

c1cn2cc(-c3ccc4cn[nH]c4c3)nc(Nc3ccc(N4CCOCC4)cc3)c2n1 [Entospletinib] (10 µM)
inactive: ABL1 = 0 | AKT1 = 0 | ALK 0 | ARAF 0 | AURKA 0 | AURKB 0 | AURKC 0 | BLK 0 | BMX 0 | BRAF 0

CC(C)(C)NC(=O)c1cncn1C1CCN(c2ccc(-c3nnc(C(F)(F)F)o3)cn2)CC1 (10 µM)
inactive: ABL1 = 0 | AKT1 = 0 | ALK 0 | ARAF 0 | AURKA 0 | AURKB 0 | AURKC 0 | BLK 0 | BMX 0 | BRAF 0

Cc1ccc2nc(NC(=O)CSc3nc4c(c(=O)n3-c3ccccc3)SCC4)sc2c1 (2 µM)
inactive: ABL1 = 0 | AKT1 = 0 | ALK 0 | ARAF 0 | AURKA 0 | AURKB 0 | AURKC 0 | BLK 0 | BMX 0 | BRAF 0

Cc1ccc(Oc2nc3cc(-c4ccc5c(ccn5C)c4)c(Cl)cc3[nH]2)cc1C(=O)O (10 µM)
inactive: ABL1 = 0 | AKT1 = 0 | ALK 0 | ARAF 0 | AURKA 0 | AURKB 0 | AURKC 0 | BLK 0 | BMX 0 | BRAF 0

CCOc1cc(C(=O)N2CCC(N3CCN(C)CC3)CC2)ccc1Nc1ncc2c(n1)N(C1CCCC1)c1ccccc1C(=O)N2C (10 µM)
inactive: ABL1 = 0 | AKT1 = 0 | ALK 0 | ARAF 0 | AURKA 0 | AURKB 0 | AURKC 0 | BLK 0 | BMX 0 | BRAF 0

COc1ccc([C@@H]2CC(=O)c3c(O)cc(O)cc3O2)cc1O [Hesperetin] (10 µM)
inactive: ABL1 = 0 | AKT1 = 0 | ALK 0 | ARAF 0 | AURKA 0 | AURKB 0 | AURKC 0 | BLK 0 | BMX 0 | BRAF 0

Cc1ccc(S(=O)(=O)/C=C/C#N)cc1 (10 µM)
inactive: ABL1 = 0 | AKT1 = 0 | ALK 0 | ARAF 0 | AURKA 0 | AURKB 0 | AURKC 0 | BLK 0 | BMX 0 | BRAF 0

C[C@@H]1O[C@@H](O[C@H]2[C@H](Oc3cc(O)c4c(=O)cc(-c5ccc(O)cc5)oc4c3)O[C@H](CO)[C@@H](O)[C@@H]2O)[C@H](O)[C@H](O)[C@H]1O [Rhoifolin] (10 µM)
inactive: ABL1 = 0 | AKT1 = 0 | ALK 0 | ARAF 0 | AURKA 0 | AURKB 0 | AURKC 0 | BLK 0 | BMX 0 | BRAF 0

CC(C)(NS(=O)(=O)c1ccc2c(Cl)cnc(N=C(N)N)c2c1)C(=O)O (10 µM)
inactive: ABL1 = 0 | AKT1 = 0 | ALK 0 | ARAF 0 | AURKA 0 | AURKB 0 | AURKC 0 | BLK 0 | BMX 0 | BRAF 0

N#Cc1c(-c2ccccc2)cc(-c2cc(Br)ccc2O)[nH]c1=O (10 µM)
inactive: ABL1 = 0 | AKT1 = 0 | ALK 0 | ARAF 0 | AURKA 0 | AURKB 0 | AURKC 0 | BLK 0 | BMX 0 | BRAF 0

Among those listed so far, these contain fluorine:
C[C@]1(O)CCC[C@@H]1n1c(=O)c(C(F)F)cc2cnc(NC3CCN(S(C)(=O)=O)CC3)nc21 (10 µM)
inactive: ABL1 = 0 | AKT1 = 0 | ALK 0 | ARAF 0 | AURKA 0 | AURKB 0 | AURKC 0 | BLK 0 | BMX 0 | BRAF 0

CC(C)(C)NC(=O)c1cncn1C1CCN(c2ccc(-c3nnc(C(F)(F)F)o3)cn2)CC1 (10 µM)
inactive: ABL1 = 0 | AKT1 = 0 | ALK 0 | ARAF 0 | AURKA 0 | AURKB 0 | AURKC 0 | BLK 0 | BMX 0 | BRAF 0

(cont.)

O=C(NCCCNc1nc(Nc2cccc(NC(=O)N3CCCC3)c2)ncc1I)c1cccs1 (2.5 µM)
inactive: ABL1 = 0 | AKT1 = 0 | ALK 0 | ARAF 0 | AURKA 0 | AURKB 0 | AURKC 0 | BLK 0 | BMX 0 | BRAF 0

O=C(Nc1cc(Oc2cc(F)c(NC(=O)C3(C(=O)Nc4ccc(F)cc4)CC3)cc2F)ccn1)C1CC1 [Altiratinib] (10 µM)
active: BRAF 1
inactive: ABL1 = 0 | AKT1 = 0 | ALK 0 | ARAF 0 | AURKA 0 | AURKB 0 | AURKC 0 | BLK 0 | BMX 0

CCn1c(-c2nonc2N)nc2cnc(Oc3cccc(NC(=O)c4ccc(OCCN5CCOCC5)cc4)c3)cc21 (10 µM)
inactive: ABL1 = 0 | AKT1 = 0 | ALK 0 | ARAF 0 | AURKA 0 | AURKB 0 | AURKC 0 | BLK 0 | BRAF 0
active: BMX 1

OCCNC1CCCc2c1[nH]c1ccc(-c3ccccc3)cc21 (stereo not given) (2.5 µM)
inactive: ABL1 = 0 | AKT1 = 0 | ALK 0 | ARAF 0 | AURKA 0 | AURKB 0 | AURKC 0 | BLK 0 | BMX 0 | BRAF 0

CCc1cc(O)c(F)cc1-c1ccc2c(-c3nc4c([nH]3)CN(C3CCN(C)CC3)CC4)n[nH]c2c1 [JAK-IN-5 (hydrochloride)] (2 µM)
inactive: ABL1 = 0 | AKT1 = 0 | ALK 0 | ARAF 0 | AURKA 0 | AURKB 0 | AURKC 0 | BLK 0 | BMX 0 | BRAF 0

COCCO[C@@H]1[C@H](O)[C@@H](CO)O[C@H]1n1cnc2c(=O)[nH]c(N)nc21 [2′-O-(2-Methoxyethyl)guanosine] (10 µM)
inactive: ABL1 = 0 | AKT1 = 0 | ALK 0 | ARAF 0 | AURKA 0 | AURKB 0 | AURKC 0 | BLK 0 | BMX 0 | BRAF 0

O=C(CNC(=O)c1ccc(-c2ccccc2)cc1)NC1CCCc2ccccc21 (stereo not given) [TAO Kinase inhibitor 1] (10 µM)
inactive: ABL1 = 0 | AKT1 = 0 | ALK 0 | ARAF 0 | AURKA 0 | AURKB 0 | AURKC 0 | BLK 0 | BMX 0 | BRAF 0

CCN(CC)c1ccc2cc(C(=O)N3CCN(C(=O)C4=Cc5c(Br)cccc5S4(=O)=O)CC3)c(=O)oc2c1 (2 µM)
inactive: ABL1 = 0 | AKT1 = 0 | ALK 0 | ARAF 0 | AURKA 0 | AURKB 0 | AURKC 0 | BLK 0 | BMX 0 | BRAF 0

CC(C)CC1(O)CCN(C(=O)c2ccc(NS(=O)(=O)c3cccc4nccnc34)cc2)CC1 (10 µM)
inactive: ABL1 = 0 | AKT1 = 0 | ALK 0 | ARAF 0 | AURKA 0 | AURKB 0 | AURKC 0 | BLK 0 | BMX 0 | BRAF 0

O=C(/C=C/c1ccc(O[C@@H]2O[C@H](CO)[C@@H](O)[C@H](O)[C@H]2O[C@@H]2OC[C@](O)(CO)[C@H]2O)cc1)c1ccc(O)cc1O [Isoliquiritin apioside] (10 µM)
inactive: ABL1 = 0 | AKT1 = 0 | ALK 0 | ARAF 0 | AURKA 0 | AURKB 0 | AURKC 0 | BLK 0 | BMX 0 | BRAF 0

CC1CN(C(=O)Nc2ccc(Cl)c(Cl)c2)C(=Nc2ccc(F)cc2)S1 (stereo not given) (10 µM)
inactive: ABL1 = 0 | AKT1 = 0 | ALK 0 | ARAF 0 | AURKA 0 | AURKB 0 | AURKC 0 | BLK 0 | BMX 0 | BRAF 0

C[C@@H]1C(=O)O[C@H](C)[C@H]1C[C@@H](O)[C@](C)(O)[C@H]1CC[C@@]2(O)C3=CC(=O)[C@@H]4C[C@@H](O)[C@@H](O)C[C@]4(C)[C@H]3CC[C@]12C [Cyasterone] (10 µM)
inactive: ABL1 = 0 | AKT1 = 0 | ALK 0 | ARAF 0 | AURKA 0 | AURKB 0 | AURKC 0 | BLK 0 | BMX 0 | BRAF 0

Cc1ccc(-c2c(C(=O)CF)n(CCCO)c3ncnc(N)c23)cc1 (10 µM)
inactive: ABL1 = 0 | AKT1 = 0 | ALK 0 | ARAF 0 | AURKA 0 | AURKB 0 | AURKC 0 | BLK 0 | BMX 0 | BRAF 0
